The record followed here is patent US20130052176.

By UniProt entry, the sequences of proteins in these tests, tags left out. Residues count along the entry.
UniProt P01138, 122-241: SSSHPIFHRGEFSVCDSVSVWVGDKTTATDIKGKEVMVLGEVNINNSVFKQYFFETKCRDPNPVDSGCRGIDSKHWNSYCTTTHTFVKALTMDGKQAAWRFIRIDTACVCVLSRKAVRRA
UniProt P23560, 129-247: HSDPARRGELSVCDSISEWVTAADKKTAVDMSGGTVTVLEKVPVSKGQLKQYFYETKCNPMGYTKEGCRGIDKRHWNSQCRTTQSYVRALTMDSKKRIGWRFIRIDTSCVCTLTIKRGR
UniProt P34130, 81-210: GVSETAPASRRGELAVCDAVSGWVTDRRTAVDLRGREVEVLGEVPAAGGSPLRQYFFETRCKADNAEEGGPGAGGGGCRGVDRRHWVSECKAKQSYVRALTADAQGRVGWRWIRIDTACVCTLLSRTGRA

The target in one data set is T1, NT-3 (human) (UniProt P20783).
T1 sequence (looked up, limits assumed): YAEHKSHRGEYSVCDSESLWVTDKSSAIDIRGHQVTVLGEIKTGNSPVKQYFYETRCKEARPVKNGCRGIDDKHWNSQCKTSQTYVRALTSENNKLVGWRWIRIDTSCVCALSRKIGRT
Description: activity in cells. The conditions noted are these: purified recombinant protein.

The target in data set [1] is NGF (nerve growth factor) (human) (UniProt P01138). Description: activity in cells. The note with it: T is 5-BrdU; neurite outgrowth; TF-1 IC50 also >200 nM; purified recombinant protein; protein details: human NGF; single-stranded DNA.
The target of another data set is BDNF (human) (UniProt P23560). In words: SPR. The note with it: 2'-F pyrimidines; 2'-OMe purines except 2'-OH at 3,5,19-22,24,26; 5' idT and 3' idT; purified recombinant protein; protein details: R&D systems; variant of aptamer ID 26.
The next data set concerns the target NT-4/5 (human) (UniProt P34130). In words: SPR. The conditions noted are these: 2'-F pyrimidines; 2'-OMe purines except 2'-OH at 3,5,19-22,24,26; 5' idT and 3' idT; purified recombinant protein; protein details: R&D systems; variant of aptamer ID 26.
Data set [2] addresses NGF (nerve growth factor) (human) (UniProt P01138). Description: SPR. The note with it: 2'-F at all pyrimidines; 2'-OMe at g19; g19 2'-OMe eliminates binding; purified recombinant protein; variant of aptamer ID 26.

For some of these results: Negatives hold for the conditions tested. For some of these results: A weaker result is weaker than the reference pair of the same experiment. For some of these results: Tags and fusion partners may be left off the protein sequences shown. Where only a bound is given, the exact number is not on record here.

As for “GGGAGACUCGCCAGAGUUGAAAGAAACCCAAAUAAGUGUGCGCAC [aptamer ID 26(63)]”, in the data set with NT-3 (human) (5' and 3' idT, 2'-OMe purines except ribo g3,g19,a20,a26, 2'-F c28,c41,c43, dC27,dC29, other pyrimidines 2'-OMe, TF-1 TrkC/p75 proliferation, protein details: R&D Systems, variant of aptamer ID 26(19)), the IC50 was over 1000 nM.
“ATATATATGGGAGGACGATGCGGGCCCCAAACACTTGTTCCTATCTTTCAACCCCCCTTGATCCAGACGACGAGCGGGAAAAAAAA [WO02/077262 Seq ID No. 42]”: the IC50 in data set [1] is over 200 nM.
As to “GGGAGACUCGCCAGAGUUGAAAGAAACCCAAAUAAGUGUGCGCAC [aptamer ID 26(52)]”, in the data set with NT-3 (human) (2'-F pyrimidines except 2'-OMe at 7,8,9,11,12,17,18,33,37,39,45, 2'-OMe purines except 2'-OH at 3,19,20,26, 5' idT and 3' idT, TF-1 growth (TrkC + p75), NT-3 0.074 nM, protein details: R&D systems, variant of aptamer ID 26(49)), the IC50 is over 1000 nM.
On to “GGGAGACUCGCCAGAGUUGAAAGAAACCCAAAUAAGUGUGCGCAC [aptamer ID 26(65)]”, for which, in the data set with NT-3 (human) (5' PEG80TS4 via ssH linker, 3' idT, 2'-OMe purines except ribo g3,g19,a20,a26, 2'-F c28,c41,c43, dC27,dC29, other pyrimidines 2'-OMe, TF-1 TrkC/p75 proliferation, protein details: R&D Systems, variant of aptamer ID 26(19)), the IC50 was over 1000 nM.
For the sequence “GGGAGACUCGCCAGAGUUGAAAGAAACCCAAAUAAGUGUGCGCAC [aptamer ID 26(2)]”, in the data set with NT-3 (human) (5' and 3' idT, 2'-F all pyrimidines, 2'-OMe purines except ribo g3,g5,g19,a20,a21,a22,a24,a26, TF-1 TrkC/p75 proliferation, protein details: R&D Systems, variant of aptamer ID 26), the IC50 is over 1000 nM. Moreover, the binding result in the data set with BDNF (human) and in the data set with NT-4/5 (human) was “binds more weakly” each time.
In the case of “GGGAGACUCGCCAGAGUUGAAAGAAACCCAAAUAAGUGUGCGCAC [aptamer ID 26(64)]”, the IC50 with NT-3 (human) (2'-F pyrimidines except 2'-OMe at 7,8,9,11,12,17,18,33,37,39,45, 2'-OMe purines except 2'-OH at 3,19,20,26, 5' PEG80TS4 (ssH linker), 3' idT, TF-1 growth (TrkC + p75), NT-3 0.074 nM, protein details: R&D systems, variant of aptamer ID 26(52)) is over 1000 nM.
On to “GGGAGACUCGCCAGAGUUGAAAGAAACCCAAAUAAGUGUGCGCAC [aptamer ID 26(-)]”, for which the binding result in data set [2] is “no binding”.
For “ATATATATGGGAGGACGATGCGGGCACACTTAAATCCACTTCACCTTACAATTCCTTTATCTGCAGACGACGAGCGGGAAAAAAAA [WO02/077262 Seq ID No. 38]”, in data set [1], the IC50 is over 200 nM.

Broadly, the IC50 is the concentration that inhibits the measured activity by half.
